From ChEMBL document CHEMBL3988442, “University of Dundee, Small-Polar-MMV Screening Library” (2021).

The chains behind the UniProt entries cited, without tags or fusion partners.
UniProt E9BF75, entry or part of it: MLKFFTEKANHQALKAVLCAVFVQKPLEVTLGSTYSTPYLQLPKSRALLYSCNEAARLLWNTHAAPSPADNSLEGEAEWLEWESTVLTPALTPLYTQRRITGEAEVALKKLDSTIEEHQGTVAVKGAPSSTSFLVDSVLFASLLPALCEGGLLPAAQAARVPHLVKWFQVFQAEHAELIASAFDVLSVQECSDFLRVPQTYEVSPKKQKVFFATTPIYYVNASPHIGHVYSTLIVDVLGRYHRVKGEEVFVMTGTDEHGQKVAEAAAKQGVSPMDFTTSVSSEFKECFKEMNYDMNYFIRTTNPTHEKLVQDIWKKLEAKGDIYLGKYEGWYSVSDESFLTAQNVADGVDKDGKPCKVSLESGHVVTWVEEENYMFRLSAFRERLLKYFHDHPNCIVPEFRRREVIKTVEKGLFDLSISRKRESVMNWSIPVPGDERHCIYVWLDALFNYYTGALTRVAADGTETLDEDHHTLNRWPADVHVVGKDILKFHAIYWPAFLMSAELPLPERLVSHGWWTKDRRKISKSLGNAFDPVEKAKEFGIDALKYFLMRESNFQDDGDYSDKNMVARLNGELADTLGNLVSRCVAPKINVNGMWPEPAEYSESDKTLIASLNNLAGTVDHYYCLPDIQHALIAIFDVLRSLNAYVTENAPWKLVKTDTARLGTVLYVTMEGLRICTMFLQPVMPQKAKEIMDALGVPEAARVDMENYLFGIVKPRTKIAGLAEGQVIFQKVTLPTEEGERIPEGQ

LdMetRS: 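Primary screen of methionyl-tRNA synthetase; the read-out is not stated. Target: Methionyl-tRNA synthetase (putative), Leishmania donovani (UniProt E9BF75). The test concentration is not given. The values are filed as inhibition. About 68,000 compounds were tested under these conditions; 0.035% (about 24) showed 50% or more at least once.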
Mtb heat-shock: 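Assay on Mycobacterium tuberculosis, filed only as a heat shock assay from Cornell; the read-out is not stated. The concentration is filed as 10 mM, unlikely as a test dose, so the dose is not known. The record gives no direction; compounds that gave an IC50 in retests scored well above the rest, so higher reads as stronger inhibition. About 69,000 compounds were tested under these conditions; 1.4% (about 930) showed 50% or more at least once.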

Results are percentages, as filed.
How 0% and 100% were set is not recorded. Most values in the screen are low, and negative values occur.
This is an unselected part of the compounds tested.
A dash means the value is not listed here; it may have been measured.

| SMILES | LdMetRS | Mtb heat-shock |
|---|---|---|
| `O=C(O)C(F)(F)F.[H][C@@]12C[C@H](c3nc(C)no3)CN(Cc3ccc(CC)o3)[C@]1([H])CCO2` | - | -1.746 |
| `O=C1NCCCCC1NCc1csc(-c2ccc(F)cc2)n1` (stereo not given) | 7.394 | - |
| `CSc1sc(NC(=O)C2CCCN(C(N)=O)C2)nc1C` (stereo not given) | 24.73 | -1.999 |
| `CN(CC(=O)NCc1ccccn1)CC1CCCN1c1cccnn1` (stereo not given) | 12.38 | 26.44 |
| `CS(=O)(=O)NCc1cnc2n1CCN(Cc1ccoc1)CC2` | 0.625 | - |
| `O=C1CC(c2ccncc2)C2(CCN(C(=O)c3ccnnc3)CC2)N1` (stereo not given) | 20.63 | 0.1904 |
| `CN(C)[C@@H]1CCN(CC2CC2)[C@H]1Cc1cnn(C)c1` | 8.955 | - |
| `O=c1[nH]ncc(NCCOc2ccc3c(c2)OCO3)c1Cl` | 7.494 | 1.544 |
| `Cn1ncc2c1C(COCC1CC1)CN(Cc1ccc(F)cc1)C2` (stereo not given) | 4.377 | -6.065 |
| `CCOc1ccc(Cl)cc1C1CCCCN1` (stereo not given) | 7.58 | - |
| `CN(C)CCOc1ccccc1N1CCN(C(=O)C(C)(C)C#N)CC1` | 25.06 | -30.6 |
| `CCCC(=O)N1CCCN(C(=O)Nc2ccc(C)s2)CC1` | 3.064 | 2.047 |
| `N#Cc1cc2c(=O)n(CC(O)Cc3ccccc3)ccc2[nH]c1=O` (stereo not given) | 13.33 | 15.4 |
| `O=C(c1c[nH]c2ccccc2c1=O)N1CCSCC1` | 2.801 | 105.4 |
| `CC(C)C(=O)N1CCC(c2nc(O)cc(-c3ccncc3)n2)CC1` | 14.04 | -13.19 |
| `O=C(O)C(F)(F)F.O=C(O)C(F)(F)F.[H][C@@]12COC[C@H](C(=O)NCc3ccccn3)[C@]1([H])CN(C1CCCC1)C2` | - | -26.6 |
| `CCn1cc(CNC(=O)C(C)C)cn1` | 18.13 | 7.918 |
| `O=C1CCC(C(=O)N2CCOC(Cc3cccc4ccccc34)C2)=NN1` (stereo not given) | 3.484 | 4.979 |
| `O=C(Cc1ccsc1)N1CCCC2(COCCN(CC3CC3)C2)C1.O=C(O)C(F)(F)F` (stereo not given) | - | -24.36 |
| `O=C(CCc1ccc(F)cc1)NS(=O)(=O)c1ccc2c(c1)OCCCO2` | -3.655 | -29.62 |
| `O=C(Cc1ccccc1)N1Cc2nccn2CC(CN2CCCC2)C1` (stereo not given) | 9.206 | - |
| `CCCC(=O)NCCc1nc(N(C)C)ncc1-c1ccncc1` | 13.08 | 2.542 |
| `COC(=O)CN(C(=O)c1ccc(Cl)cn1)c1cccc(F)c1` | 7.216 | -15.72 |
| `O=C(CN1CCSC(c2ccccc2)C1)NCc1ccccn1` (stereo not given) | 5.666 | -17.68 |
| `[H][C@]12CC[C@]([H])(CN(S(=O)(=O)N(C)C)C1)N(C/C=C/c1ccc(OC)cc1)C2` | - | 3.481 |
| `CCc1ncc2c(n1)CN(C(=O)c1c(C)[nH]c3c1C(=O)CCC3)C2` | -4.087 | 0.9888 |
| `COc1ccc(NC(C)C(=O)N2CCCC2)cn1` (stereo not given) | 11.96 | 25.89 |
| `CCCC(=O)N1CCN(CCN(C)C)c2nc(C)ccc2C1.O=C(O)C(F)(F)F.O=C(O)C(F)(F)F` | - | -8.29 |
| `O=C(O)C(F)(F)F.O=C(O)C(F)(F)F.[H][C@@]12CCCO[C@]1([H])[C@H](N1CCCC1)CN(C(=O)c1ccc(C)nc1)C2` | - | -49.43 |
| `COC[C@@]12CCC[C@@H]1CN(C(=O)Cc1ccco1)C2` | 20.73 | - |
| `Fc1ccc(CN2C[C@@H]3OCCN(CCN4CCCC4)[C@@H]3C2)cc1` | 10.47 | - |
| `FC(F)(F)CCc1ccnc(N2CCN(Cc3ccccn3)CC2)n1` | 2.211 | 30.3 |
| `Cc1nc(C)n(CC2CCCCN2Cc2nc3ccccc3o2)n1` (stereo not given) | 15.1 | -17.08 |
| `Cc1ccc(CNC(=O)N(C)Cc2ccc([S+](C)[O-])cc2)s1` (stereo not given) | 8.696 | 5.221 |
| `O=C1CC2(CCN(CC3CC3)C2)CN1c1cccnc1` (stereo not given) | 8.55 | - |
| `COc1cccc(-c2noc(-c3ccc(NCC4CC4)nc3)n2)c1OC` | 16.59 | 3.553 |
| `CN(C)c1nc2c(c(N3CCC4(CCCNC4=O)C3)n1)CCCC2` (stereo not given) | -1.344 | -11.54 |
| `Cc1n[nH]cc1CNC(=O)CCCc1cccs1` | 8.108 | 6.118 |
| `COc1ccc(CN2CC[C@@]3(O)CCCC[C@H]3C2)cc1C(=O)O` | 4.878 | - |
| `COC(=O)N1CCC(NC(=O)Cn2cc(C)c3ccccc32)CC1` | 12.36 | -20.73 |
| `Cn1ncc(-c2cc(-c3cccc(O)c3)nc(N)c2C#N)c1C1CC1` | 12.24 | 9.867 |
| `CC1N(CC2CC2)C(=O)COC12CCN(Cc1nccs1)CC2` (stereo not given) | 15.5 | - |
| `O=C1CCCC2=C1C(c1cccc(F)c1F)Nc1nonc1N2` (stereo not given) | 16.17 | -3.474 |
| `Cc1nn(C)c2c(=O)n(CC(=O)Nc3cc(Cl)cc(Cl)c3)nnc12` | 14.52 | 5.412 |
| `CN(C)C(=O)N1CCn2cc(CNC(=O)CC3CC3)nc2C1` | 19.37 | 4.775 |
| `CCN1C(=O)CCC12CCCN(CCc1ccccc1)C2` (stereo not given) | 5.602 | -14.42 |
| `Cc1ccc(CN2CCC[C@]3(C(=O)O)CN(c4ncccn4)C[C@@H]3C2)o1` | 14.64 | - |
| `CN(C)CCOCC1CN(Cc2ccncc2)Cc2nnn(C)c21` (stereo not given) | 20.81 | - |
| `Cc1cccnc1CN1CC[C@@](C)(O)[C@H](Oc2ccccc2)C1` | 14.84 | -17.28 |
| `CS(=O)(=O)N1CCC2(CC1)NCCn1c(-c3ccccc3)cnc12.O=C(O)C(F)(F)F.O=C(O)C(F)(F)F` | - | -51.96 |
| `CC(C)NC(=O)C1c2c(ncn2C(C)C)CCN1Cc1ccccc1` (stereo not given) | 11.85 | - |
| `[H][C@]12CCN(c3cc(OC)ncn3)[C@@]1([H])C[C@H](C(=O)NC(C)C)O2` | - | -3.155 |
| `Oc1nc(N2CCOCC2)nc2c1CCN(Cc1ccc(F)cc1)CC2` | 17.51 | -3.886 |
| `c1ccc(-c2nc(SCc3nnc(C4CC4)o3)n[nH]2)nc1` | 13.74 | 78.14 |
| `Cc1cnccc1NCCn1ccnc1C1CCOC1` (stereo not given) | 10.26 | -18.84 |
| `COc1ccc(N2CCN(C(=O)[C@H]3[C@@H]4CNC[C@@H]43)CC2(C)C)cc1` | -1.083 | - |
| `O=C(CN1CCCC(CO)C1)NCCOc1cccc(Cl)c1` (stereo not given) | 3.846 | -0.6993 |
| `CN(C)C(CNC(=O)c1cc2c([nH]c1=O)CCCC2=O)c1ccsc1` (stereo not given) | 12.38 | -5.178 |
| `CCc1nc(C2CCCN2Cc2nc(CCOC)no2)no1` (stereo not given) | 10.24 | -14.55 |
| `COc1ncccc1NC(=O)N1CCCC(CNC(=O)OC(C)(C)C)C1` (stereo not given) | 5.245 | -4.797 |
| `Cc1nc(C)c(C)c(N2CCC3(CCN(C)C3)C2)n1` (stereo not given) | 13.94 | 13.59 |

Once more, the final 3:

* CCc1nc(C2CCCN2Cc2nc(CCOC)no2)no1 (stereo not given) : LdMetRS: 10.24%; Mtb heat-shock: -14.55%
* COc1ncccc1NC(=O)N1CCCC(CNC(=O)OC(C)(C)C)C1 (stereo not given) : LdMetRS: 5.245%; Mtb heat-shock: -4.797%
* Cc1nc(C)c(C)c(N2CCC3(CCN(C)C3)C2)n1 (stereo not given) : LdMetRS: 13.94%; Mtb heat-shock: 13.59%